The campaign covered roughly 340,000 compounds. About 170 (0.05%) were called active. The inconclusive results got no clear call from the source; some entries with a clear call stand among them for comparison. The call rests on the fitted dose curve; in most records, active means well fitted inhibition curve with a large enough effect in the signal ratio, with a control signal flat (not every such curve was filed as active); inconclusive means small, poorly fitted or top-dose-only effect, or effect the other way, or a change in a side signal; inactive means flat fitted curve, though single readings scatter; the % refers to the signal ratio. Potencies of inconclusive entries are doubtful fits and often do not repeat.
experiment: qHTS Assay to Find Inhibitors of Chronic Active B-Cell Receptor Signaling; details: ABC-DLBCL IkBa-CBG/CBR reporter, luminescence ratio (green luciferase fused to IkBa over red control in TMD8 lymphoma cells), 4 h; activity change, negative = inhibition: at 46.1 µM (top of the series);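 on activity change, negative = inhibition: plate controls were basal doxycycline-induced cells for no effect and cells given 10 µM MG132 for full effect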
How it was run: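 Cell line TMD8 (human ABC DLBCL), stably expressing tet-inducible CBG68-IkBa fusion and CBR; IMDM/0.5% FBS; cpd up to 46 uM; dox induction, 4 h, 37C/5% CO2; dual luminescence; green/red ratio; MG132 control.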
Potency means the concentration at half of the fitted maximal effect.

| Compound | activity change, negative = inhibition | Potency |
| --- | --- | --- |
| Cc1c(C(=O)N2CCCC2)oc2ccc(Br)cc12 | inconclusive: 13.1% |  |
| Nc1nc2sc3c(c2c(=O)s1)CCCC3 | inconclusive: -5.02% |  |
| Cc1cc(NC(=O)Nc2ccc(Cl)cc2)n(-c2ccccc2)n1 | inconclusive: 7.47% |  |
| COc1ccc(CCN2Cc3c(N)cccc3C2=O)cc1OC | inactive |  |
| O=C(CSc1nnc(COc2ccccc2)n1Cc1ccco1)Nc1ccc2c(c1)OCCO2 | inconclusive: -3.62% |  |
| COc1cc(OC)cc(C(=O)Oc2c(CN3CCOCC3)cc(Cl)c3cccnc23)c1 |  | inconclusive: 3.55 µM [cytotoxic, partial curve] |
| COc1cc(C=O)ccc1OCc1ccc(Cl)nc1 |  | inconclusive: 35.5 µM [falling, single point] |
| N#Cc1c(CSCC(=O)O)cc(=O)n2c1[nH]c1ccccc12 |  | inconclusive: 1.41 µM [rising, partial curve, poor fit] |
| COc1ccc(OC)c(CNC(=O)C2CCC(=O)N2C(C)C)c1 (configuration not stated) | inconclusive: 6.92% |  |
| O=C(CCN1C(=O)S/C(=C\c2ccc(F)cc2)C1=O)Nc1ccc(O)cc1C(=O)O | inconclusive: -11.6% |  |
| Cc1cccc(OCCCCn2c(CO)nc3ccccc32)c1 | inconclusive: 1.67% |  |
| O=S(=O)(/N=C(/Nc1nc2ccccc2s1)c1ccccc1)c1ccccc1 | inconclusive: 15.3% |  |
| COc1ccc2c(c1)c(CC(=O)OCC(=O)N(C)C)c(C)n2C(=O)c1ccc(Cl)cc1 |  | inconclusive: 35.5 µM [falling, single point] |
| Cc1ccc(/C=C/C(=O)Nn2cnnc2)cc1 | inconclusive: 7.75% |  |
| FC(F)Oc1ccc(C2N=C(c3ccccc3)NO2)cc1 (configuration not stated) | inconclusive: -0.498% |  |
| Cc1ccc(S(=O)(=O)N(C)C)cc1NC(=O)CN1C(=O)NC2(CCCCCC2)C1=O | inactive |  |
| O=C1c2ccc(Oc3ccc([N+](=O)[O-])cc3)cc2C(=O)N1CCCO | inconclusive: 5.92% |  |
| CCOc1cccc(N2C(=O)CC(NCc3ccc(S(N)(=O)=O)cc3)C2=O)c1 (configuration not stated) | inconclusive: -1.12% |  |
| NS(=O)(=O)c1ccc(CNS(=O)(=O)c2cccc3nonc23)cc1 | inactive |  |
| CS(=O)(=O)c1ccc(C(=O)OCC(=O)c2ccc(Cl)s2)cc1 | inconclusive: 1.01% |  |
| CC(C)NC(=O)N(C)C[C@H]1Oc2ccc(NC(=O)c3ccncc3)cc2C(=O)N([C@H](C)CO)C[C@@H]1C |  | inconclusive: 0.651 µM [falling, partial curve, poor fit] |
| Cc1ccc(-c2cn3nc(C)c(C)nc3n2)cc1 |  | inconclusive: 18.4 µM [falling, single point] |
| Cc1ccc(S(=O)(=O)Oc2ccccc2/C=N/N=C(N)N)cc1 |  | inconclusive: 35.5 µM [rising, single point] |
| O=C(CSc1nnc(Cc2cccs2)n1CCc1ccccc1)N1CCCc2ccccc21 |  | inconclusive: 8.2 µM [rising, partial curve, poor fit] |
| COC(=O)c1sccc1NC(=O)Nc1ccc(C)cc1C | inconclusive: -10.2% |  |
| COc1cccc(CNc2nc3nc(C)cc(C)n3n2)c1 |  | inconclusive: 20.6 µM [falling, single point] |

| Compound | activity change, negative = inhibition | Potency |
| --- | --- | --- |
| COc1ccc(CN2CCNC(=O)C2CC(=O)N(C)CC2CCOCC2)cc1C (configuration not stated) | inconclusive: 0.601% |  |
| COc1cccc(NC(=O)CCN2C(=O)c3cccc([N+](=O)[O-])c3C2=O)c1 | inconclusive: -1.23% |  |
| O=C(NCCCN1CCOCC1)c1cc(-c2ccccc2F)no1 | inconclusive: -10.7% |  |
| CC1C/C(=C/c2ccco2)C(=O)/C(=C/c2ccco2)C1 (configuration not stated) |  | inconclusive: 18.4 µM [cytotoxic, single point] |
| O=C(c1cccs1)N1CCCN(c2ncnc3scc(-c4ccccc4)c23)CC1 |  | inconclusive: 28.2 µM [falling, partial curve, poor fit] |
| CCC(=Nc1ccccc1)C1=C(O)CC(C)(C)CC1=O |  | inconclusive: 3.98 µM [falling, full curve, poor fit] |
| Cn1c(=O)cc(OCC(=O)NCc2cccs2)c2ccccc21 |  | inconclusive: 12.6 µM [falling, partial curve, poor fit] |
| Oc1ccc(Cl)cc1CNc1ccc(Br)cn1 | inconclusive: 0.218% |  |
| CCCN(CCC)S(=O)(=O)c1ccc(C(=O)N2CCOCC2)cc1 | inconclusive: 1.43% |  |
| COc1cccc(C2CC(c3c(Cl)cccc3Cl)n3nc(N)nc3N2)c1 (configuration not stated) | inconclusive: 5.59% |  |
| COc1ccc(CCN2CC(C(=O)NCCc3cn[nH]c3)CCC2=O)cc1 (configuration not stated) | inconclusive: 8.68% |  |
| CCCN(CCC)S(=O)(=O)c1ccc(NC(=O)Cc2cccs2)cc1 |  | inconclusive: 0.0206 µM [rising, full curve, poor fit] |
| COc1ccc(CCN2CCCC(CN(C)C(=O)c3ccoc3C)C2)cc1 (configuration not stated) | inconclusive: 5.25% |  |
| COc1ccc(/C=C/C(=O)OCC(=O)c2ccccc2F)cc1 | inconclusive: 11.3% |  |
| COc1nnc(-c2ccc(N3CCCCC3)c(NC(C)=O)c2)c2ccccc12 |  | inconclusive: 3.66 µM [falling, partial curve, poor fit] |
| Cc1cc(Br)ccc1SCC(=O)OC/C(O)=C(\C#N)c1nc2ccccc2[nH]1 | inactive |  |
| CC(Sc1ccc(S(=O)(=O)N2CCOCC2)cn1)c1ccccc1Cl (configuration not stated) | inactive |  |
| CCN(CC)CCCNC(=O)CSc1c2c(nc3cc(Cl)ccc13)CCCC2 | inconclusive: 4.86% |  |
| CC(C)C(=O)Nc1ccc2nn(-c3ccc(F)cc3)nc2c1 | inconclusive: 7.18% |  |
| COc1ccc(CC(=O)OCC(=O)NC(=O)NC(C)C)cc1 | inconclusive: -0.084% |  |
| Cc1nn(-c2ccccc2)c(C)c1C(=O)OCC(=O)Nc1cccc(S(N)(=O)=O)c1 |  | inconclusive: 4.11 µM [falling, single point] |
| CCCOC(=O)C1=C(C)NC(=O)NC1c1ccc(Br)s1 (configuration not stated) | inconclusive: 2.28% |  |
| Cc1oc(-c2cccs2)nc1CN1CC[C@@](O)(c2ccccc2)[C@H]2CCCC[C@@H]21 | inactive |  |
| COc1ccc(-c2nc(-c3ccncc3)no2)c(OC)c1 |  | inconclusive: 0.562 µM [falling, full curve, poor fit] |
| O=C(O)C1CCCCN1C(=O)c1cc2c(s1)CCCCC2 (configuration not stated) |  | inconclusive: 20.6 µM [falling, partial curve] |
| CCC(=O)N1CCCc2cc(S(=O)(=O)N3CCN(c4ccccn4)CC3)ccc21 | inconclusive: 1.3% |  |

By substructure, the compounds so far containing a thiophene ring, fused or not

| Compound | activity change, negative = inhibition | Potency |
| --- | --- | --- |
| Nc1nc2sc3c(c2c(=O)s1)CCCC3 | inconclusive: -5.02% |  |
| CS(=O)(=O)c1ccc(C(=O)OCC(=O)c2ccc(Cl)s2)cc1 | inconclusive: 1.01% |  |
| O=C(CSc1nnc(Cc2cccs2)n1CCc1ccccc1)N1CCCc2ccccc21 |  | inconclusive: 8.2 µM [rising, partial curve, poor fit] |
| COC(=O)c1sccc1NC(=O)Nc1ccc(C)cc1C | inconclusive: -10.2% |  |
| O=C(c1cccs1)N1CCCN(c2ncnc3scc(-c4ccccc4)c23)CC1 |  | inconclusive: 28.2 µM [falling, partial curve, poor fit] |
| Cn1c(=O)cc(OCC(=O)NCc2cccs2)c2ccccc21 |  | inconclusive: 12.6 µM [falling, partial curve, poor fit] |
| CCCN(CCC)S(=O)(=O)c1ccc(NC(=O)Cc2cccs2)cc1 |  | inconclusive: 0.0206 µM [rising, full curve, poor fit] |
| CCCOC(=O)C1=C(C)NC(=O)NC1c1ccc(Br)s1 (configuration not stated) | inconclusive: 2.28% |  |
| Cc1oc(-c2cccs2)nc1CN1CC[C@@](O)(c2ccccc2)[C@H]2CCCC[C@@H]21 | inactive |  |
| O=C(O)C1CCCCN1C(=O)c1cc2c(s1)CCCCC2 (configuration not stated) |  | inconclusive: 20.6 µM [falling, partial curve] |

At a glance, some entries already given.

| Compound | activity change, negative = inhibition | Potency |
| --- | --- | --- |
| COc1ccc(CC(=O)OCC(=O)NC(=O)NC(C)C)cc1 | inconclusive: -0.084% |  |
| Cc1nn(-c2ccccc2)c(C)c1C(=O)OCC(=O)Nc1cccc(S(N)(=O)=O)c1 |  | inconclusive: 4.11 µM [falling, single point] |

The listing continues:

| Compound | activity change, negative = inhibition | Potency |
| --- | --- | --- |
| CCCCN(C)C/C(O)=C(\C#N)c1nc(-c2ccccc2)cs1 |  | inconclusive: 29.1 µM [falling, single point] |
| O=C(Nc1cccc(Br)c1)c1cc(S(=O)(=O)N2CCOCC2)cs1 | inconclusive: 6.28% |  |
| Cc1cc(C)nc(/N=C(\NC(=O)C(C)(C)C)Nc2ccccc2)n1 | inconclusive: -7.8% |  |
| Cc1ccc(-c2cc(C(=O)N/N=C/c3c(C)nn(-c4ccccc4)c3C)n[nH]2)s1 |  | inconclusive: 2.59 µM [falling, full curve] |
| COc1ccc(C(=O)COC(=O)c2ccn(C)n2)cc1 | inconclusive: 1.2% |  |
| Cn1c(=O)c2c(ncn2CC(=O)N2CCN(C(=O)c3ccco3)CC2)n(C)c1=O | inconclusive: 3.35% |  |
| CN(C)Cc1c(O)ccc2ccccc12 | inactive |  |
| COc1ccccc1NC(=S)N=Nc1c(O)[nH]c2ccc(Br)cc12 |  | inconclusive: 35.5 µM [falling, single point] |
| Oc1ccc(/C=C/c2ccc3ccccc3n2)cc1 |  | inconclusive: 25.1 µM [falling, partial curve] |
| Cc1cccc2sc(N(CCCN(C)C)C(=O)c3ccc(Cl)s3)nc12 | inconclusive: 12.7% |  |
| Fc1ccc(C2c3cccn3CCN2C(=S)Nc2cccc(Br)c2)cc1 (configuration not stated) |  | inconclusive: 31.6 µM [rising, single point] |
| CCOCCCNC(=S)N1C2CCC1CC(NC(=O)Nc1ccc(C(=O)OCC)cc1)C2 (configuration not stated) | inconclusive: 5.28% |  |
| S=C(c1ccc(-c2ccc(Cl)cc2Cl)o1)N1CCCCC1 |  | inconclusive: 10.3 µM [rising, partial curve, poor fit] |
| CC(=O)NNC(=S)NC(=O)c1ccc(C)cc1 |  | inconclusive: 31.6 µM [falling, single point] |
| CCN1C(=O)/C(=C/N(C(C)=O)c2ccccc2)N(c2ccccc2)C1=S | inconclusive: 8.31% |  |
| O=C(O)c1cc(N/N=C/c2ccc(-c3ccccc3)cc2)ccc1Cl | inconclusive: -0.112% |  |
| Cc1ccc(NC(=O)c2cc(S(=O)(=O)NCCc3ccccc3)ccc2F)cc1Cl | inconclusive: 21.9% |  |
| COc1ccccc1/C=C1\SC(=S)N(CCC(=O)NCCCN2CCOCC2)C1=O |  | inconclusive: 15.8 µM [falling, single point] |
| CCC(=O)Nc1sc2c(c1C#N)CC(C)(CC)OC2 (configuration not stated) | inactive |  |
| CCN(CC(=O)Nc1ccc2c(c1)OCCO2)C(=O)c1ccc(S(=O)(=O)N(C)C)cc1 | inconclusive: 2.84% |  |
| CCCCNc1ncnc2c1nnn2C | inconclusive: 8.82% |  |
| Cc1cc(C(=O)NCc2ccccc2Br)no1 |  | inconclusive: 23.1 µM [falling, partial curve] |
| COc1ccc2c3n(nc2c1)CCN=C3c1ccc(C)cc1 |  | inconclusive: 29.1 µM [falling, single point] |
| CCCCn1nnc(NC(=S)NC(=O)c2ccc(OCC)c([N+](=O)[O-])c2)n1 | inconclusive: -1.3% |  |
| COc1ccc(C2CC(c3ccc([N+](=O)[O-])cc3)=NN2C(C)=O)cc1 (configuration not stated) | inconclusive: -0.814% |  |

— PubChem BioAssay AID493014 (National Center for Advancing Translational Sciences (NCATS), 2011)
